Patent US20230047825A1, “ANTIMICROBIAL PEPTIDES” (priority 2019, published 2023)
Where two headings read alike, the source gives them in different places. Where a SMILES comes first, the peptide text is derived from it.

Legend:
HEK293 = type: cell-based, human
Method: Cytotoxicity assay. HeLa and HEK293 cell lines were purchased from ECACC and cultured in Eagle's Minimum Essential Media (EMEM) containing glutamine, supplemented with 10% FBS and 1× non-essential amino acids (NEAA) at 37° C., 10% CO2. Cytotoxicity was measured by incubating starter cultures of cells for 24 hours in a 96 well plate, gently removing the supernatant and replacing it with dilutions of peptides and controls, incubating for a further 24 hours and then staining of the cells with the second generation tetrazolium dye, XTT. […]

A549 = type: cell-based
[1] = MIC in RPMI (value in parentheses)

## CC(C)C[C@@H](NC(=O)[C@@H](Cc1ccc(O)cc1)NC(=O)[C@@H](Cc1c[nH]cn1)NC(=O)[C@H](NC(=O)[C@@H](CC(C)C)NC(=O)[C@@H](C)NC(=O)[C@@H](C)NC(=O)[C@@H](CCCCN)NC(=O)CNC(=O)[C@@H](C)NC(=O)[C@@H](Cc1c[nH]cn1)NC(=O)[C@@H](CCCCN)NC(=O)CNC(=O)[C@@H](C)NC(=O)[C@@H](Cc1c[nH]cn1)NC(=O)[C@@H](C)NC(=O)[C@@H](C)NC(=O)[C@@H](CCCCN)NC(=O)[C@@H](CCCCN)NC(=O)[C@@H](Cc1ccccc1)NC(=O)[C@@H](Cc1ccccc1)NC(=O)[C@@H](CO)NC(=O)CNC(=O)[C@@H](Cc1c[nH]c2ccccc12)NC(=O)CN)[C@H](C)O)C(N)=O [D-pleurocidin-VA] (HELM PEPTIDE1{G.[dW].G.[dS].[dF].[dF].[dK].[dK].[dA].[dA].[dH].[dA].G.[dK].[dH].[dA].G.[dK].[dA].[dA].[dL].[dT].[dH].[dY].[dL].[am]}$$$$V2.0; N-terminus assumed)
HEK293; MIC in Mueller-Hinton broth
  Selectivity Index HEK293/EMRSA-15 (EC50 divided by the MIC): 6.8
HEK293; [1]
  Selectivity Index HEK293/EMRSA-15 (EC50 divided by the MIC): 27.2
A549; MIC in Mueller-Hinton broth
  Selectivity Index A549/EMRSA-15 (EC50 divided by the MIC): > 7.8
A549; [1]
  Selectivity Index A549/EMRSA-15 (EC50 divided by the MIC): > 31.2

## CC(C)C[C@@H](NC(=O)[C@@H](Cc1ccc(O)cc1)NC(=O)[C@@H](Cc1c[nH]cn1)NC(=O)[C@H](NC(=O)[C@@H](CC(C)C)NC(=O)[C@@H](C)NC(=O)[C@@H](C)NC(=O)[C@@H](CCCNC(=N)N)NC(=O)CNC(=O)[C@H](NC(=O)[C@@H](Cc1c[nH]cn1)NC(=O)[C@@H](CCCNC(=N)N)NC(=O)CNC(=O)[C@H](NC(=O)[C@@H](Cc1c[nH]cn1)NC(=O)[C@@H](C)NC(=O)[C@@H](C)NC(=O)[C@@H](CCCNC(=N)N)NC(=O)[C@@H](CCCNC(=N)N)NC(=O)[C@@H](Cc1ccccc1)NC(=O)[C@@H](Cc1ccccc1)NC(=O)[C@@H](CO)NC(=O)CNC(=O)[C@@H](Cc1c[nH]c2ccccc12)NC(=O)CN)C(C)C)C(C)C)[C@H](C)O)C(N)=O [D-pleurocidin-KR] (HELM PEPTIDE1{G.[dW].G.[dS].[dF].[dF].[dR].[dR].[dA].[dA].[dH].[dV].G.[dR].[dH].[dV].G.[dR].[dA].[dA].[dL].[dT].[dH].[dY].[dL].[am]}$$$$V2.0; N-terminus assumed)
HEK293; MIC in Mueller-Hinton broth
  Selectivity Index HEK293/EMRSA-15 (EC50 divided by the MIC): 18.2
  Selectivity Index HEK293/P. aeruginosa RP73 (tobramycin): 12.8
HEK293; [1]
  Selectivity Index HEK293/EMRSA-15 (EC50 divided by the MIC): 72.8
  Selectivity Index HEK293/P. aeruginosa RP73 (tobramycin): 4.6
A549; MIC in Mueller-Hinton broth
  Selectivity Index A549/EMRSA-15 (EC50 divided by the MIC): 28.3
A549; [1]
  Selectivity Index A549/EMRSA-15 (EC50 divided by the MIC): 113.0

## CC(C)C[C@H](NC(=O)[C@H](Cc1ccc(O)cc1)NC(=O)[C@H](Cc1c[nH]cn1)NC(=O)[C@@H](NC(=O)[C@H](CC(C)C)NC(=O)[C@H](C)NC(=O)[C@H](C)NC(=O)[C@H](CCCCN)NC(=O)CNC(=O)[C@H](C)NC(=O)[C@H](Cc1c[nH]cn1)NC(=O)[C@H](CCCCN)NC(=O)CNC(=O)[C@H](C)NC(=O)[C@H](Cc1c[nH]cn1)NC(=O)[C@H](C)NC(=O)[C@H](C)NC(=O)[C@H](CCCCN)NC(=O)[C@H](CCCCN)NC(=O)[C@H](Cc1ccccc1)NC(=O)[C@H](Cc1ccccc1)NC(=O)[C@H](CO)NC(=O)CNC(=O)[C@H](Cc1c[nH]c2ccccc12)NC(=O)CN)[C@@H](C)O)C(N)=O [Pleurocidin-VA] (H-GWGSFFKKAAHAGKHAGKAALTHYL-NH2; N-terminus assumed)
HEK293; MIC in Mueller-Hinton broth
  Selectivity Index HEK293/EMRSA-15 (EC50 divided by the MIC): 6.25
HEK293; [1]
  Selectivity Index HEK293/EMRSA-15 (EC50 divided by the MIC): 12.5
